{"source": "PubChem BioAssay AID1259405 (NCATS, 2018)", "test": "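Knock-downs that lift recombinant protein yield in hamster ovary cells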 (primary screen)", "system": "Chinese hamster CHO-K1 ovary cells with stable secreted eGFP expression", "reagents": "single siRNA against mouse genes, 0.8 pmol siRNA per well (2 µl of 400 nM stock)", "duration": "3 days", "measurement": "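Per-well intracellular GFP measured by laser scanning cytometry, plus viability from ATP luminescence, each relative to plate median of non-targeting control wells, in %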", "scale": "GFP, % of control: higher = more GFP per well, higher productivity; viability (ATP), % of control: higher = more viable cells (more ATP)", "rule for the call": "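Called active when intracellular GFP, relative to negative control, is at or above 120%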", "note": "In all, the deposit lists about 50,000 reagents; below is a random part of them. About 4,000 of all reagents (8%) were called active. 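Mouse siRNA library applied to hamster cells; one well for each siRNA.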 No sequences are given here."}
The first 2 records as a preview:
{"gene symbol":"Kbtbd12","PubChem SID":"SID363540907","GFP, % of control":72.8,"viability (ATP), % of control":79.9,"Call":"inactive"}
{"gene symbol":"Kbtbd12","PubChem SID":"SID363555534","GFP, % of control":66.6,"viability (ATP), % of control":73.8,"Call":"inactive"}

Results, repeating the preview:
{"gene symbol":"Kbtbd12","PubChem SID":"SID363540907","GFP, % of control":72.8,"viability (ATP), % of control":79.9,"Call":"inactive"}
{"gene symbol":"Kbtbd12","PubChem SID":"SID363555534","GFP, % of control":66.6,"viability (ATP), % of control":73.8,"Call":"inactive"}
{"gene symbol":"Kbtbd12","PubChem SID":"SID363565823","GFP, % of control":81.9,"viability (ATP), % of control":78.3,"Call":"inactive"}
{"gene symbol":"Txndc8","PubChem SID":"SID363556901","GFP, % of control":45.9,"viability (ATP), % of control":52.3,"Call":"inactive"}
{"gene symbol":"Txndc8","PubChem SID":"SID363563805","GFP, % of control":79,"viability (ATP), % of control":45.3,"Call":"inactive"}
{"gene symbol":"Txndc8","PubChem SID":"SID363587351","GFP, % of control":69.6,"viability (ATP), % of control":81.9,"Call":"inactive"}
{"gene symbol":"Cryz","PubChem SID":"SID363575280","GFP, % of control":104,"viability (ATP), % of control":90.2,"Call":"inactive"}
{"gene symbol":"Cryz","PubChem SID":"SID363580912","GFP, % of control":97.5,"viability (ATP), % of control":64.6,"Call":"inactive"}
{"gene symbol":"Cryz","PubChem SID":"SID363583024","GFP, % of control":72.3,"viability (ATP), % of control":55.9,"Call":"inactive"}
{"gene symbol":"Pum3","PubChem SID":"SID363539743","GFP, % of control":59.9,"viability (ATP), % of control":81.7,"Call":"inactive"}
{"gene symbol":"Pum3","PubChem SID":"SID363561044","GFP, % of control":54.1,"viability (ATP), % of control":53.7,"Call":"inactive"}
{"gene symbol":"Pum3","PubChem SID":"SID363565134","GFP, % of control":55.7,"viability (ATP), % of control":31.8,"Call":"inactive"}
{"gene symbol":"Adcy2","PubChem SID":"SID363573067","GFP, % of control":63.5,"viability (ATP), % of control":85.4,"Call":"inactive"}
{"gene symbol":"Adcy2","PubChem SID":"SID363577643","GFP, % of control":60.7,"viability (ATP), % of control":83.7,"Call":"inactive"}
{"gene symbol":"Adcy2","PubChem SID":"SID363581163","GFP, % of control":78.3,"viability (ATP), % of control":71.3,"Call":"inactive"}
{"gene symbol":"Rab27a","PubChem SID":"SID363554827","GFP, % of control":142,"viability (ATP), % of control":93.9,"Call":"active"}
{"gene symbol":"Rab27a","PubChem SID":"SID363568274","GFP, % of control":29.3,"viability (ATP), % of control":61.3,"Call":"inactive"}
{"gene symbol":"Rab27a","PubChem SID":"SID363586333","GFP, % of control":54.3,"viability (ATP), % of control":57,"Call":"inactive"}
